Results are given in words; binding and its absence hold for the method and conditions named. Binding seen in cells or lysates may run through a third protein. Some results given as binding are weak or reduced against the parent protein; the word gives no strength.
Biological target: Argonaute2 (Ago2), endogenous (human (endogenous in H1299 and SCC9)) (UniProt Q9UKV8)
Assay: co-IP; endogenous proteins; cells lysed in 50 mM Tris-HCl pH 8.0, 5 mM EDTA, 150 mM NaCl, 0.5% NP-40; immunoprecipitated with specific antibodies, protein A agarose; Western blotting; H1299 or SCC9 cells

By UniProt entry, the sequences of proteins in these tests, tags left out.
UniProt Q9UKV8: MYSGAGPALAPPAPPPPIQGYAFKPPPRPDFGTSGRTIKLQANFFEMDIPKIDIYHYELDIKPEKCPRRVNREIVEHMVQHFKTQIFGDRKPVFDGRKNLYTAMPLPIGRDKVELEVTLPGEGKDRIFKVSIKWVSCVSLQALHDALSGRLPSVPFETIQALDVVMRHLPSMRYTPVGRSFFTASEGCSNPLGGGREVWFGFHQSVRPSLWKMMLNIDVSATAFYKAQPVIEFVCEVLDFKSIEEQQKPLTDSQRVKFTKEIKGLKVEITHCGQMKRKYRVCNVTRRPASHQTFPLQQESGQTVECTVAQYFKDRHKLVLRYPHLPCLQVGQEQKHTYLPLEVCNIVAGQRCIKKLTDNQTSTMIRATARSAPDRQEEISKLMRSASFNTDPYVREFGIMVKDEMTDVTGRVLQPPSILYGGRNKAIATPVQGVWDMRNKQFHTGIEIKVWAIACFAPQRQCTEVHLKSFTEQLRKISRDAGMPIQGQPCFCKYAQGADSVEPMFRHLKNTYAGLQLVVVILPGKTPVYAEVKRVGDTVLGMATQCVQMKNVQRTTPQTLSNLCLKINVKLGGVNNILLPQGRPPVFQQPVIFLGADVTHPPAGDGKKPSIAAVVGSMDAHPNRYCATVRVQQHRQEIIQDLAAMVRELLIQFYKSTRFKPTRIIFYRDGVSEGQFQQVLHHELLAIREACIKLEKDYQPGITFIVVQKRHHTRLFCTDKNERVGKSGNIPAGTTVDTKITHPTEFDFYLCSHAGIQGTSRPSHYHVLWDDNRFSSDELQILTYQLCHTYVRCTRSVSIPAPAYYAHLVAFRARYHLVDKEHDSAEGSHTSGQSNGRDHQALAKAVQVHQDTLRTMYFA

binding: binds
B1: TAp63, endogenous (protein, UniProt Q9H3D4 1-680)
chain: MNFETSRCATLQYCPDPYIQRFVETPAHFSWKESYYRSTMSQSTQTNEFLSPEVFQHIWDFLEQPICSVQPIDLNFVDEPSEDGATNKIEISMDCIRMQDSDLSDPMWPQYTNLGLLNSMDQQIQNGSSSTSPYNTDHAQNSVTAPSPYAQPSSTFDALSPSPAIPSNTDYPGPHSFDVSFQQSSTAKSATWTYSTELKKLYCQIAKTCPIQIKVMTPPPQGAVIRAMPVYKKAEHVTEVVKRCPNHELSREFNEGQIAPPSHLIRVEGNSHAQYVEDPITGRQSVLVPYEPPQVGTEFTTVLYNFMCNSSCVGGMNRRPILIIVTLETRDGQVLGRRCFEARICACPGRDRKADEDSIRKQQVSDSTKNGDGTKRPFRQNTHGIQMTSIKKRRSPDDELLYLPVRGRETYEMLLKIKESLELMQYLPQHTIETYRQQQQQQHQHLLQKQTSIQSPSSYGNSSPPLNKMNSMNKLPSVSQLINPQQRNALTPTTIPDGMGANIPMMGTHMPMAGDMNGLSPTQALPPPLSMPSTSHCTPPPPYPTDCSIVSFLARLGCSSCLDYFTTQGLTTIYQIEHYSMDDLASLKIPEQFRHAIWKGILDHRQLHEFSSPSHLLRTPSSASTVSVGSSETRGERVIDAVRFTLRQTISFPPRDEWNDFNFDMDARRNKQQRIKEEGE
